From patent publication US5783568A, “Methods for treating cancer and other cell proliferative diseases” (Sugen, Inc., priority 1994, dated 1998)

System: sFGFR (soluble extracellular domain of FGFR2 (bek))
Experiment: Isothermal titration calorimetry, aFGF binding to sFGFR
Design: species or system human
Settings: ITC, mean ± SD of three experiments
From the text: A plasmid encoding the extracellular, ligand-binding domain of human FGFR2 (residues 1-355) was constructed using standard oligonucleotide-directed mutagenesis (Amersham) to introduce a translational termination codon immediately prior to the beginning of the single transmembrane domain of the receptor (Dionne et al., 1990). BamHI and SacII restriction sites were introduced 3' to the new termination codon. An XbaI-SacII fragment was isolated from the replicative form (RF) of this M13 mutagenesis product, filled in using T4 DNA polymerase (Boehringer-Mannheim) and inserted into the SmaI site of the expression vector pCVN (Dionne et al., 1990). This expression vector, which contains both the neomycin resistance and the dihydrofolate reductase genes for selection and amplification, was transfected into CHO cells following published procedures. Wigler et al., 1979, Cell 16:777-785.
The binding of aFGF to sFGFR was studied using the technique of isothermal titration calorimetry (ITC). In this technique the heat liberated (or absorbed) upon binding is monitored as small aliquots of ligand are added sequentially to a solution of the receptor at known concentration, which is maintained at constant temperature. […]

aFGF: aFGF was expressed in E. coli and purified by binding to a heparin-sepharose column
Stoichiometry n of aFGF binding to sFGFR (aFGF as the ligand molecule, no added heparin): 0.9±0.14 | AH of aFGF binding to sFGFR: -22.2 ± 8.37 kJ/mol
